# PubChem BioAssay AID2551 (National Center for Advancing Translational Sciences (NCATS), 2010)
# Sequences of proteins named here, by UniProt entry; tags and fusion partners are left off. A change or cut given only in a name is not applied to a line headed by its entry.
# UniProt P51450: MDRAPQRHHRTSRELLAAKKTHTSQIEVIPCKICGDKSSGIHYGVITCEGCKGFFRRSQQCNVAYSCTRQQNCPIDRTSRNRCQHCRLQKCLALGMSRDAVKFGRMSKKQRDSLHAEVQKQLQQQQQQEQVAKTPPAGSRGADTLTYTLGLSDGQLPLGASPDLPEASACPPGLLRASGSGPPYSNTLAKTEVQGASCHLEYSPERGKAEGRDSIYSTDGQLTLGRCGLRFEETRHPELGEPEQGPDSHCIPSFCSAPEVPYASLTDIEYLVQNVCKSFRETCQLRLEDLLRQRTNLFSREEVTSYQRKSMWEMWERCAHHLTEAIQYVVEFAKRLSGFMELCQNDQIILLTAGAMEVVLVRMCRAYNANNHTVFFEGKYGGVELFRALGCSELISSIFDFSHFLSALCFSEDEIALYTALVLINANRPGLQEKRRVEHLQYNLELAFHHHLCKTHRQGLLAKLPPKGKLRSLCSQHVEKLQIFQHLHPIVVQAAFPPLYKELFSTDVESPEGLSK
# In all, about 310,000 compounds went through this assay and about 17,000 (5.5%) were called active. Inconclusive means that the source gave no clear call. Such entries were picked first, then a sample of the others. Calls come from the whole dose curve; as a rule, active = well fitted inhibition curve with a large enough effect; inconclusive = small, poorly fitted or top-dose-only effect, or effect the other way; inactive = no such curve, though single readings can be large or run the other way. Potencies beside an inconclusive call are fits to weak or partial responses and may not hold up.
# Biological target: Nuclear receptor ROR-gamma (Mus musculus) (UniProt P51450)
# Test: qHTS for inhibitors of ROR gamma transcriptional activity; note: nearly all actives have a fitted effect of over 60% in size
# Conditions: Drosophila S2 Gal4-RORgamma UAS-luciferase reporter, 20 h; activity change, negative = inhibition: at 53.6 µM (top of the series)
# Summary of the method: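 Using a luciferase readout, inhibitors were identified by reduced reporter activity in Drosophila cells coexpressing a copper-inducible Gal4–ROR gamma fusion and UAS-driven Photinus luciferase, incubated 20 hr after 700 uM copper sulfate.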
# % is set by controls: 0 for no effect and ±100 for the full control effect; potency is the fitted concentration of half-maximal effect.
Structure (SMILES),Potency,"activity change, negative = inhibition"
Cc1ccc(/C=C/C(=O)N2CCN(S(=O)(=O)/C=C/c3ccccc3)CC2)o1,"inconclusive: 35.5 µM [activator, single point]",–
O=C(Nc1cccc(Cl)c1)C1C2CCC3C(CCC21)C3(Cl)Cl (stereo not drawn),"inconclusive: 14.1 µM [activator, partial curve]",–
Cc1[nH]c2ccccc2c1C(=O)/C=C\c1ccccc1Cl,active: 12.6 µM,–
Cc1ccc(SCCNC(=O)c2ccc(C)c(S(=O)(=O)Nc3cccc(C)c3)c2)cc1,"inconclusive: 17.8 µM [activator, single point]",–
C/C(=N\NC(=O)c1csc(C)c1C)c1ccco1,"inconclusive: 35.5 µM [inhibitor, single point]",–
O=C(COC(=O)/C(=C/c1cccs1)c1cccs1)NC(c1ccccc1)c1ccccc1,–,inactive: -5.16%
O=C(Nc1ccc(F)cc1)OCCOc1ccc([N+](=O)[O-])cc1,"inconclusive: 35.5 µM [activator, single point]",–
CC(=O)c1nc(N2C(=O)C3CC=C(C)CC3C2=O)sc1C (stereo not drawn),"inconclusive: 0.126 µM [activator, single point]",–
Cc1ccccc1N(CC(=O)NCCSc1ccccn1)S(=O)(=O)c1ccccc1,–,inactive: -1.53%
COc1ccc(Cl)cc1C(=O)Nc1ccccc1N1CCN(C(=O)C(C)C)CC1,–,inactive: -2.2%
CC(C)(C)OC(=O)N1CCC(NC(=O)c2[nH]cnc2C(=O)N[C@@H](Cc2ccccc2)C(=O)OCc2ccccc2)CC1,"inconclusive: 11.2 µM [inhibitor, partial curve]",–
CCN(CC)CCn1c(SCC(=O)Nc2ccc(F)cc2)nc2c(sc3ccccc32)c1=O,"inconclusive: 35.5 µM [inhibitor, single point]",–
FC(F)(F)c1cccc(NC(=S)NCc2ccccn2)c1,active: 3.55 µM,–
CCCn1nnc(NC(=O)c2ccc3c(c2)OCO3)n1,–,inactive: -24.5%
COc1ccc(NC(=O)COC(=O)Cc2ccc(-c3ccccc3)cc2)c(OC)c1,"inconclusive: 10 µM [activator, partial curve]",–
COc1ccc(C(=O)NCC(=O)OCC(=O)c2cc(OC)c(OC)c(OC)c2)cc1OC,"inconclusive: 0.0891 µM [activator, full curve, poor fit]",–
Cc1cc2c(=O)n(C)c(SCC(=O)Nc3cccc(F)c3)nc2s1,–,inactive: 53.5%
CC(C)C[C@@H](CSc1ccc(Br)cc1)N1CCN(C)CCC1=O,–,inactive: -6.96%
O=C(c1ccc(Cl)c(S(=O)(=O)N2CCCCC2)c1)N1CCN(c2ccccc2)CC1,–,inactive: 21%
O=C(Oc1ccc(N(C(=O)c2ccncc2)S(=O)(=O)c2ccc(Cl)cc2)cc1)c1ccncc1,"inconclusive: 31.6 µM [activator, single point]",–
Cc1cc(C(F)(F)F)c2c(N)c(C(=O)Nc3cc(C)on3)sc2n1,active: 7.08 µM,–
COc1ccc(/C=C/C(=O)NC(=S)NNC(=O)c2cccs2)cc1,active: 2 µM,–
Fc1ccc(Nc2ccc3ccccc3n2)c(F)c1,"inconclusive: 11.2 µM [inhibitor, single point]",–
O=C(c1ccco1)N1CCCC(c2nc3c(nnn3Cc3ccc(F)cc3)c(=O)[nH]2)C1 (stereo not drawn),–,inactive: 37.9%
COC(=O)CSC1=C(C#N)C(c2ccsc2)CC(=O)N1 (stereo not drawn),"inconclusive: 15.8 µM [activator, single point]",–

# Exported with tabs: 2 of the compounds above
Structure (SMILES)	Potency	activity change, negative = inhibition
CCN(CC)CCn1c(SCC(=O)Nc2ccc(F)cc2)nc2c(sc3ccccc32)c1=O	inconclusive: 35.5 µM [inhibitor, single point]	–
FC(F)(F)c1cccc(NC(=S)NCc2ccccn2)c1	active: 3.55 µM	–

# More results:

Structure (SMILES),Potency,"activity change, negative = inhibition"
O=C(Cc1coc2ccc3ccccc3c12)NCc1cccs1,"inconclusive: 11.2 µM [activator, partial curve]",–
O=C(CN1CCN(Cc2ccc(Cl)cc2)C1=O)NCc1cccs1,"inconclusive: 28.2 µM [activator, partial curve]",–
O=C(NC(NC(=S)N1CCOCC1)C(Cl)(Cl)Cl)c1cccc2ccccc12 (stereo not drawn),–,inactive: 14.6% [at 10 µM]
Cc1cc(C(=O)Nc2ccc(Nc3ccccc3)cc2)ccc1[N+](=O)[O-],"inconclusive: 20 µM [activator, partial curve]",–
CCN1C(=O)c2ccccc2S(=O)c2ccc(C(=O)NCc3ccc(OC)cc3)cc21 (stereo not drawn),–,inactive: -11.2%
CN(C(=O)COC(=O)c1ccc[nH]c1=O)C1CCCCC1,"inconclusive: 35.5 µM [inhibitor, single point]",–
COc1ccc(S(=O)(=O)NCC(c2cccnc2)N2CCN(c3ccccc3)CC2)cc1C (stereo not drawn),"inconclusive: 4.47 µM [activator, partial curve]",–
CCCOc1ccc(/C=N/NC(=O)c2ccc(Cn3cc([N+](=O)[O-])cn3)o2)cc1,–,inactive: -1.14%
COC(=O)c1ccc(CSc2ncnc3c2nnn3-c2ccc(OC)cc2)o1,"inconclusive: 10 µM [activator, partial curve]",–
COCCNC(=O)c1cc(-c2ccc3c(c2)OCO3)on1,"inconclusive: 22.4 µM [inhibitor, single point]",–
CCOc1ccc(-n2c(N)c(C(=O)NCc3ccco3)c3nc4ccccc4nc32)cc1,"inconclusive: 12.6 µM [inhibitor, single point]",–
COc1cccc(-c2ccc(C#N)c(=O)[nH]2)c1,–,inactive: 11.7%
CCCOC(=O)C(C)n1cnc2sc(C)c(C)c2c1=O (stereo not drawn),"inconclusive: 10 µM [activator, partial curve]",–
COc1ccc(Nc2nc3ccccc3nc2NS(=O)(=O)c2cccs2)cc1,"inconclusive: 12.6 µM [activator, single point]",–
Cc1ccc(S(=O)(=O)N2CCOCC2)cc1C(=O)NC1CCCC1,–,inactive: -27.1%
Cc1cc(C)c2c(n1)nn1c(NCCN3CCOCC3)cc(C)nc21,"inconclusive: 17.8 µM [inhibitor, single point]",–
CCOC(=O)C1CCCCN1Cc1ccc(-c2ccccc2)cc1 (stereo not drawn),"inconclusive: 35.5 µM [activator, single point]",–
CNC(=O)c1[nH]cnc1C(=O)N[C@@H](C)C(=O)OC(C)(C)C,–,inactive: -42.4%
COc1cccc(-c2nnc(SCC(=O)N3CCOCC3)o2)c1,"inconclusive: 0.891 µM [activator, partial curve]",–
Cc1nc(NC(CC(C)C)C(=O)O)c2nc(C)oc2n1 (stereo not drawn),"inconclusive: 35.5 µM [inhibitor, single point]",–
Cc1cc(OCCCCCn2ccnc2)cc(C)c1Cl,–,inactive: 24.4%
CC1CCCCN1C(=O)Nc1cccc(Cl)c1 (stereo not drawn),"inconclusive: 6.31 µM [inhibitor, single point]",–
NC(=O)c1sc2nc3c(c(-c4ccccc4)c2c1N)CCC3,"inconclusive: 14.1 µM [activator, partial curve]",–
CCc1cc(=O)oc2cc(C)cc(OCC(=O)NCCCN3CCOCC3)c12,"inconclusive: 6.31 µM [inhibitor, single point]",–
C=CCc1cc(C=O)cc(OC)c1OCc1ccc(C(=O)O)cc1,–,inactive: 15.4%

# Two successive records from above, quoted:
Structure (SMILES),Potency,"activity change, negative = inhibition"
COc1cccc(-c2nnc(SCC(=O)N3CCOCC3)o2)c1,"inconclusive: 0.891 µM [activator, partial curve]",–
Cc1nc(NC(CC(C)C)C(=O)O)c2nc(C)oc2n1 (stereo not drawn),"inconclusive: 35.5 µM [inhibitor, single point]",–

# Next part

Structure (SMILES),Potency,"activity change, negative = inhibition"
CN(C)S(=O)(=O)c1ccc(Cl)c(NC(=O)COC(=O)CN2C(=O)C3CCCCC3C2=O)c1 (stereo not drawn),–,inactive: -11.6%
COc1ccccc1C(=O)C1CCCN(Cc2ccc3c(c2)OCCO3)C1 (stereo not drawn),–,inactive: -9.91%
COCCNc1c2c(nc3c(-c4ccccc4)c(C)nn13)CCCC2,"inconclusive: 7.94 µM [inhibitor, partial curve]",–
CCCCN(CC(O)COc1cccc(C)c1)CC(O)COc1cccc(C)c1 (stereo not drawn),"inconclusive: 22.4 µM [inhibitor, single point]",–
CC1CCc2c(sc3ncnc(NCCN4CCOCC4)c23)C1 (stereo not drawn),–,inactive: -5.6%
COc1ccc(C(NC(=O)c2cc(OC)ccc2OC)c2ccccc2)cc1 (stereo not drawn),"inconclusive: 35.5 µM [activator, single point]",–
O=C1CC(Cc2ccccc2)C(=O)N1c1ncccn1 (stereo not drawn),–,inactive: -42.7%
CCCc1cc(C(=O)N2CCCC(Nc3ccc(C)c(C)c3)C2)n(C)n1 (stereo not drawn),–,inactive: 27.3%
CCSc1cc(C2C(C#N)=C(N)OC(C)=C2C(=O)OC)c(C)o1 (stereo not drawn),active: 12.6 µM,–
Nc1nc(Nc2ccc(Cl)cc2)nc(NCCO)c1[N+](=O)[O-],"inconclusive: 7.94 µM [activator, partial curve]",–
Cc1c(NC(=O)C(C)OC(=O)C23CC4CC(CC(Br)(C4)C2)C3)c(=O)n(-c2ccccc2)n1C (stereo not drawn),–,inactive: 24.4%
Cc1nc2ccccn2c1C(=O)N/N=C/c1ccc([N+](=O)[O-])o1,active: 14.1 µM,–
N=c1oc2cc(O)ccc2cc1C(=O)Nc1ccc(F)cc1,active: 11.2 µM,–
Cc1cccc(NC(=S)N2CCCCCC2)c1C,"inconclusive: 17.8 µM [inhibitor, partial curve, poor fit]",–
C[n+]1c2n(c3ccccc31)N=C(c1cc(C(C)(C)C)c(O)c(C(C)(C)C)c1)CS2,"inconclusive: 12.6 µM [inhibitor, single point]",–
Cc1cnn2c(C3CC3)ccnc12,–,inactive: 18%
CC(C)(C)n1ncc2c(=O)n(CC(=O)NCc3ccc(F)cc3)cnc21,"inconclusive: 28.2 µM [inhibitor, single point]",–
CCOC(=O)c1cccc(NC(=O)/C=C/c2ccc3c(c2)OCO3)c1,"inconclusive: 31.6 µM [inhibitor, single point]",–
CSCCC(NC(=O)c1cc(CC(C)C)oc1C)C(=O)O (stereo not drawn),"inconclusive: 4.47 µM [inhibitor, partial curve, poor fit]",–
CCc1cc2c(NCC3CCCO3)nc(C)nc2s1 (stereo not drawn),–,inactive: 3.44%
CC(=O)OC[C@@H]1O[C@@H](O/N=C2/C[C@@H](O)[C@@H](O)[C@@H]3[C@@H]4C(=O)N(C(C)(C)C)C(=O)[C@H]4CC[C@H]23)[C@H](OC(C)=O)[C@H](OC(C)=O)[C@@H]1OC(C)=O,–,inactive: 5.09% [at 10 µM]
Cc1ccc(S(=O)(=O)NCCNC(=O)c2ccccc2)cc1,–,inactive: 3.81%
N#C/C(=N/Nc1ccc(OC(F)(F)F)cc1)C(N)=S,active: 4.47 µM,–
